Values of other authors in US20040139488A1, “Compositions and methods for enhancing disease resistance in fish” (priority 2002, published 2004).
Part of at least one peptide drawing is inferred or uncertain, most often the ends. Ends that are not written are not given here.

How the values were obtained:
[1] = tested on: E. ictaluri; settings: synthesized, HPLC-purified peptide, in vitro
[2] = tested on: Aeromonas salmonicida; settings: synthesized, HPLC-purified peptide, in vitro

SWLSKTAKKLENSAKKRISEGIAIAIQGGPR [cecropin P1]
bactericidal activity against E. ictaluri [1]: possess the predicted bactericidal activity | bactericidal activity against Aeromonas salmonicida [2]: possess the predicted bactericidal activity
